These are yes or no findings as the source states them, for the method shown. In cells and extracts the contact can be indirect. Binding calls can cover weak binding; strength is not graded here. For some of these results: Sequences can lack the tags named with a protein.
Assays:
[1] = molecular target: (Flag)3-TET1 734-2039 (mouse) (UniProt Q3URK3); experiment: co-IP
[2] = molecular target: MBP-TET1 1-120, serine to alanine mutant within residues 109-120 (mouse) (UniProt Q3URK3); experiment: pull-down
[3] = molecular target: MBP-TET1 1-120, valine to alanine mutant within residues 109-120 (mouse) (UniProt Q3URK3); experiment: pull-down
[4] = molecular target: MBP-TET1 1-120, proline to alanine mutant within residues 109-120 (mouse) (UniProt Q3URK3); experiment: pull-down
[5] = molecular target: MBP-TET1 1-120, glutamine to alanine mutant within residues 109-120 (mouse) (UniProt Q3URK3); experiment: pull-down
[6] = molecular target: MBP-TET1 1-120, arginine to alanine mutant within residues 109-120 (mouse) (UniProt Q3URK3); experiment: pull-down
[7] = molecular target: (Flag)3-TET1 (734-1169), leucine to alanine mutant within residues 1156-1169 (mouse) (UniProt Q3URK3); experiment: co-IP
[8] = molecular target: (Flag)3-TET1(1-1547) Δ1+2, serine to alanine mutant within residues 1522-1547 (mouse) (UniProt Q3URK3); experiment: co-IP
[9] = molecular target: (Flag)3-TET1 (734-1169), isoleucine to alanine mutant within residues 1156-1169 (mouse) (UniProt Q3URK3); experiment: co-IP
[10] = molecular target: (Flag)3-TET1 (734-1169), proline to alanine mutant within residues 1156-1169 (mouse) (UniProt Q3URK3); experiment: co-IP

Sequences of proteins named here, by UniProt entry; tags and fusion partners are left off. A change or cut given only in a name is not applied to a line headed by its entry. Residues count along the entry.
UniProt Q3URK3, residues 734-2039: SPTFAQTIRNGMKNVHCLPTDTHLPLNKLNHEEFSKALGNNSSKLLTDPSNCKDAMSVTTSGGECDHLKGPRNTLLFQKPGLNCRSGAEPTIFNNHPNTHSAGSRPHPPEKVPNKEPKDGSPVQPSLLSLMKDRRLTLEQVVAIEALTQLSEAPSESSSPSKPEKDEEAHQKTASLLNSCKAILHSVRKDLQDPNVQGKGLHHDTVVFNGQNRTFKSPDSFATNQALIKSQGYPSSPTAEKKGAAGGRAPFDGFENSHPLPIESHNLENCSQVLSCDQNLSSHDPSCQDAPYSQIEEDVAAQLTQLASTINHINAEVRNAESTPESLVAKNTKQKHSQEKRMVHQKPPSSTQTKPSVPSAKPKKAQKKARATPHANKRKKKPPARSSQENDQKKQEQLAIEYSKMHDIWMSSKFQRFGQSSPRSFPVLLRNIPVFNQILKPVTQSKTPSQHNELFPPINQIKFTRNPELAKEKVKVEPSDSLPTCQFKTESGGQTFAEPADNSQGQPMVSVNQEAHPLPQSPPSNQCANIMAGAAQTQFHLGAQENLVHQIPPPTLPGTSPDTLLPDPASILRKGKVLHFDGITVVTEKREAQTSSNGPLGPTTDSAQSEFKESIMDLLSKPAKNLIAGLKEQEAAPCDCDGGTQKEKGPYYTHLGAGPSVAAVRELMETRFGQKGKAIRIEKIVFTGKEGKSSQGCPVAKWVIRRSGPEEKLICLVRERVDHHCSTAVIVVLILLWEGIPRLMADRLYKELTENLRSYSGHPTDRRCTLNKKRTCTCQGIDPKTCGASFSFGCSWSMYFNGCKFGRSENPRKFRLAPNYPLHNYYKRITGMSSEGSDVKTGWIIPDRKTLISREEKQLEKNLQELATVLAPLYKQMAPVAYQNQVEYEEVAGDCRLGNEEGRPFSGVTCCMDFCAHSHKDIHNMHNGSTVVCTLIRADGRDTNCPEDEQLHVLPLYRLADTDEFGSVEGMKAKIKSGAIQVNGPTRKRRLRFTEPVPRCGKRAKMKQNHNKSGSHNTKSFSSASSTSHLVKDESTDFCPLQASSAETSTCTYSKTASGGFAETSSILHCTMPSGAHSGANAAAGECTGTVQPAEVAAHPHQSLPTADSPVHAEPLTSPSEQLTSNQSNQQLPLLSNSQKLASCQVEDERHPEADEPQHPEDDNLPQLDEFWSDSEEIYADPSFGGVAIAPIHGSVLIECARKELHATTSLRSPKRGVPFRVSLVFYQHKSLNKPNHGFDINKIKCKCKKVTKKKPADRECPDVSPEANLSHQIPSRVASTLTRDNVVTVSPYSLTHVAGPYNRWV

Measured: binding

(HA)3-NANOG ΔWR (from UniProt Q80Z64)
binds: [1]

B1: His-NANOG (protein, UniProt Q80Z64 1-305)
chain: MSVGLPGPHSLPSSEEASNSGNASSMPAVFHPENYSCLQGSATEMLCTEAASPRPSSEDLPLQGSPDSSTSPKQKLSSPEADKGPEEEENKVLARKQKMRTVFSQAQLCALKDRFQKQKYLSLQQMQELSSILNLSYKQVKTWFQNQRMKCKRWQKNQWLKTSNGLIQKGSAPVEYPSIHCSYPQGYLVNASGSLSMWGSQTWTNPTWSSQTWTNPTWNNQTWTNPTWSSQAWTAQSWNGQPWNAAPLHNFGEDFLQPYVQLQQNFSASDLEVNLEATRESHAHFSTPQALELFLNYSVTPPGEI
binds: [2] | [3] | [4] | [5] | [6]

B2: (HA)3-NANOG (protein, UniProt Q80Z64 1-305)
chain: MSVGLPGPHSLPSSEEASNSGNASSMPAVFHPENYSCLQGSATEMLCTEAASPRPSSEDLPLQGSPDSSTSPKQKLSSPEADKGPEEEENKVLARKQKMRTVFSQAQLCALKDRFQKQKYLSLQQMQELSSILNLSYKQVKTWFQNQRMKCKRWQKNQWLKTSNGLIQKGSAPVEYPSIHCSYPQGYLVNASGSLSMWGSQTWTNPTWSSQTWTNPTWNNQTWTNPTWSSQAWTAQSWNGQPWNAAPLHNFGEDFLQPYVQLQQNFSASDLEVNLEATRESHAHFSTPQALELFLNYSVTPPGEI
binds: [7] | [8] | [9] | [10]

From publication doi:10.1101/2020.06.29.177584
